Source: the supplement of paper PMC6411743
± gives the standard deviation of the averaged measurements. The list shows a part of the results.

Amino acid sequences for entries named in this document (tags omitted). A change or cut given only in a name is not applied to a line headed by its entry.
UniProt Q5T7M9: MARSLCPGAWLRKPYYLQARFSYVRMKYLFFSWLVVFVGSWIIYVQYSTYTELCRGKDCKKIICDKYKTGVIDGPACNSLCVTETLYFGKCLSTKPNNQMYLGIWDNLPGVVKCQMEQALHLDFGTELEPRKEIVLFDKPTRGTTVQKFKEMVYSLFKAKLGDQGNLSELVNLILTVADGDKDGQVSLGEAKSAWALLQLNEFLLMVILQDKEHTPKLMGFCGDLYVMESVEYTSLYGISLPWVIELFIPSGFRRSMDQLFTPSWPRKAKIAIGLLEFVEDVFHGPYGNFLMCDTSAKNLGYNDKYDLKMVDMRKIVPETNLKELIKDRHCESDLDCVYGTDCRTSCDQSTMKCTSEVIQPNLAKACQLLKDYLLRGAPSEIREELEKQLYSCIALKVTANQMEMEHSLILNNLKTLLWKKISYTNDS
UniProt Q8WUH1: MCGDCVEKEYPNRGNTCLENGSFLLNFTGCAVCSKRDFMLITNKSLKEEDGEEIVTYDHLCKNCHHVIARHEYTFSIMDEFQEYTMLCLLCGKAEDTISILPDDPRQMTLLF
UniProt I3L1I5, whole entry, looked up: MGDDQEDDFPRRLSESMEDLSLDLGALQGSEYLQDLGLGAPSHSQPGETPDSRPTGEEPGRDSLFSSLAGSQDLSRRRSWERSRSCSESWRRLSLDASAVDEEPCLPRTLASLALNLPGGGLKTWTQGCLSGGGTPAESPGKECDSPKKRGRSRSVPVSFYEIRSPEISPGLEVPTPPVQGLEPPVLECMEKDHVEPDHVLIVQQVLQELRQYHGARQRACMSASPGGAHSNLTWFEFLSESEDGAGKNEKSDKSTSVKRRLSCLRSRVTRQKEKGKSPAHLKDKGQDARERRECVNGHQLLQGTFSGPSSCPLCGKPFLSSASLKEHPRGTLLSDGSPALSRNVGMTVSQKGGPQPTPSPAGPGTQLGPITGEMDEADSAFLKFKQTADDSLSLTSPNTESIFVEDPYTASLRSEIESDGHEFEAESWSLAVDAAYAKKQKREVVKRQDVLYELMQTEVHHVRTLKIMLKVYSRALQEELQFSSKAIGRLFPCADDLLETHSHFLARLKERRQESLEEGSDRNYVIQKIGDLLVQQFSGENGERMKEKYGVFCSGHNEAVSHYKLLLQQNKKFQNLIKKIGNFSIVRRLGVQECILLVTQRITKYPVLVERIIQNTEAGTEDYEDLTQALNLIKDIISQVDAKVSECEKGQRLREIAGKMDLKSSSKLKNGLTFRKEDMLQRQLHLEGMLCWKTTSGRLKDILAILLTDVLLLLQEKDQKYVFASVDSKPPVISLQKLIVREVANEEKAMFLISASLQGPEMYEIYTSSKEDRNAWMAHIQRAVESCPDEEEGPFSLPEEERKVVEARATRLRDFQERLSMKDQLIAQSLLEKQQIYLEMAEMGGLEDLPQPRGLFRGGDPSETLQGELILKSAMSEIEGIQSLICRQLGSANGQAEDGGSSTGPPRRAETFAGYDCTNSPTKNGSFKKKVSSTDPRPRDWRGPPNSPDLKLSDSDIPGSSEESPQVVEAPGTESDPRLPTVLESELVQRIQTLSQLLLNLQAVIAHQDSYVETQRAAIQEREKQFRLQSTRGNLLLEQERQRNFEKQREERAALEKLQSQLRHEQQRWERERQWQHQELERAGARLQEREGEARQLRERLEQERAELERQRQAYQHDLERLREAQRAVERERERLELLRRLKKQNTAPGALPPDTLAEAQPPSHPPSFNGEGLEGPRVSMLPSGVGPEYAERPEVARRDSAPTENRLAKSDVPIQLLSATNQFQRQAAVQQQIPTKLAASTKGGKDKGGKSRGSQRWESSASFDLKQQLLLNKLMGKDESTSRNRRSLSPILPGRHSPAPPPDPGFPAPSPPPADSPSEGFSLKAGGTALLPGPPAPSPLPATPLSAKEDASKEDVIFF
UniProt Q9UHJ6: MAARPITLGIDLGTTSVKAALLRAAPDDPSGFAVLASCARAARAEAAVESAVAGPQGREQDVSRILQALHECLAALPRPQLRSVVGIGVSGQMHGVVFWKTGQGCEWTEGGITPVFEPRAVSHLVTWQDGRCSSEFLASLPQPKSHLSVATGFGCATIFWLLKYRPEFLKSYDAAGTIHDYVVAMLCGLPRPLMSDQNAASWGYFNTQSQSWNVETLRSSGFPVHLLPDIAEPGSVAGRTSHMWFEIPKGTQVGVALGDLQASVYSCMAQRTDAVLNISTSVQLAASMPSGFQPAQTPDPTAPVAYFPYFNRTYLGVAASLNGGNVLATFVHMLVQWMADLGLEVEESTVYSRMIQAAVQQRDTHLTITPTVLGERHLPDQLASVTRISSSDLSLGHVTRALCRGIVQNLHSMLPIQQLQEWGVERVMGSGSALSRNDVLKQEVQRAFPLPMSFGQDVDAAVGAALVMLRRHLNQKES
UniProt Q05193: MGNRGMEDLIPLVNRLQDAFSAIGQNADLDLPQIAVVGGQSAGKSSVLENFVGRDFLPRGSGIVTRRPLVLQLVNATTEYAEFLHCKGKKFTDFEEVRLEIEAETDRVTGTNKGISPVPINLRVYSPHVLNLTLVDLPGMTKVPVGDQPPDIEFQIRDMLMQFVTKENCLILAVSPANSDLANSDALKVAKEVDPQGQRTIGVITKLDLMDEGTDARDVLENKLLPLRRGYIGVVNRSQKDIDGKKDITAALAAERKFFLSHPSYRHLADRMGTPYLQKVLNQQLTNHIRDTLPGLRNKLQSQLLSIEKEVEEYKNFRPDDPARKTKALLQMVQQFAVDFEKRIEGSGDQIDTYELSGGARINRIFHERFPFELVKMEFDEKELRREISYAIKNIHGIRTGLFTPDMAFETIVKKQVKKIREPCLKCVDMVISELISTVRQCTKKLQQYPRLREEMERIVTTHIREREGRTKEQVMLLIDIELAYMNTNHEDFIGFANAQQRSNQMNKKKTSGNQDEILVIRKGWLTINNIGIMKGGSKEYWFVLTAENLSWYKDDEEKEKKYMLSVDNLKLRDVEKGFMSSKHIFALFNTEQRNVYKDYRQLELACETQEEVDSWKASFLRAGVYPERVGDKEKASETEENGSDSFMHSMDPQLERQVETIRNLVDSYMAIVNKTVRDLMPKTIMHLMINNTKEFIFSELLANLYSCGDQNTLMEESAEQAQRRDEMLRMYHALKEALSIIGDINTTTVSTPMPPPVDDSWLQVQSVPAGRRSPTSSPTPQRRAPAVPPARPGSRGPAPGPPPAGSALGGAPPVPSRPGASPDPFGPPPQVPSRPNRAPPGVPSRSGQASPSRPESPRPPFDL
UniProt Q14966: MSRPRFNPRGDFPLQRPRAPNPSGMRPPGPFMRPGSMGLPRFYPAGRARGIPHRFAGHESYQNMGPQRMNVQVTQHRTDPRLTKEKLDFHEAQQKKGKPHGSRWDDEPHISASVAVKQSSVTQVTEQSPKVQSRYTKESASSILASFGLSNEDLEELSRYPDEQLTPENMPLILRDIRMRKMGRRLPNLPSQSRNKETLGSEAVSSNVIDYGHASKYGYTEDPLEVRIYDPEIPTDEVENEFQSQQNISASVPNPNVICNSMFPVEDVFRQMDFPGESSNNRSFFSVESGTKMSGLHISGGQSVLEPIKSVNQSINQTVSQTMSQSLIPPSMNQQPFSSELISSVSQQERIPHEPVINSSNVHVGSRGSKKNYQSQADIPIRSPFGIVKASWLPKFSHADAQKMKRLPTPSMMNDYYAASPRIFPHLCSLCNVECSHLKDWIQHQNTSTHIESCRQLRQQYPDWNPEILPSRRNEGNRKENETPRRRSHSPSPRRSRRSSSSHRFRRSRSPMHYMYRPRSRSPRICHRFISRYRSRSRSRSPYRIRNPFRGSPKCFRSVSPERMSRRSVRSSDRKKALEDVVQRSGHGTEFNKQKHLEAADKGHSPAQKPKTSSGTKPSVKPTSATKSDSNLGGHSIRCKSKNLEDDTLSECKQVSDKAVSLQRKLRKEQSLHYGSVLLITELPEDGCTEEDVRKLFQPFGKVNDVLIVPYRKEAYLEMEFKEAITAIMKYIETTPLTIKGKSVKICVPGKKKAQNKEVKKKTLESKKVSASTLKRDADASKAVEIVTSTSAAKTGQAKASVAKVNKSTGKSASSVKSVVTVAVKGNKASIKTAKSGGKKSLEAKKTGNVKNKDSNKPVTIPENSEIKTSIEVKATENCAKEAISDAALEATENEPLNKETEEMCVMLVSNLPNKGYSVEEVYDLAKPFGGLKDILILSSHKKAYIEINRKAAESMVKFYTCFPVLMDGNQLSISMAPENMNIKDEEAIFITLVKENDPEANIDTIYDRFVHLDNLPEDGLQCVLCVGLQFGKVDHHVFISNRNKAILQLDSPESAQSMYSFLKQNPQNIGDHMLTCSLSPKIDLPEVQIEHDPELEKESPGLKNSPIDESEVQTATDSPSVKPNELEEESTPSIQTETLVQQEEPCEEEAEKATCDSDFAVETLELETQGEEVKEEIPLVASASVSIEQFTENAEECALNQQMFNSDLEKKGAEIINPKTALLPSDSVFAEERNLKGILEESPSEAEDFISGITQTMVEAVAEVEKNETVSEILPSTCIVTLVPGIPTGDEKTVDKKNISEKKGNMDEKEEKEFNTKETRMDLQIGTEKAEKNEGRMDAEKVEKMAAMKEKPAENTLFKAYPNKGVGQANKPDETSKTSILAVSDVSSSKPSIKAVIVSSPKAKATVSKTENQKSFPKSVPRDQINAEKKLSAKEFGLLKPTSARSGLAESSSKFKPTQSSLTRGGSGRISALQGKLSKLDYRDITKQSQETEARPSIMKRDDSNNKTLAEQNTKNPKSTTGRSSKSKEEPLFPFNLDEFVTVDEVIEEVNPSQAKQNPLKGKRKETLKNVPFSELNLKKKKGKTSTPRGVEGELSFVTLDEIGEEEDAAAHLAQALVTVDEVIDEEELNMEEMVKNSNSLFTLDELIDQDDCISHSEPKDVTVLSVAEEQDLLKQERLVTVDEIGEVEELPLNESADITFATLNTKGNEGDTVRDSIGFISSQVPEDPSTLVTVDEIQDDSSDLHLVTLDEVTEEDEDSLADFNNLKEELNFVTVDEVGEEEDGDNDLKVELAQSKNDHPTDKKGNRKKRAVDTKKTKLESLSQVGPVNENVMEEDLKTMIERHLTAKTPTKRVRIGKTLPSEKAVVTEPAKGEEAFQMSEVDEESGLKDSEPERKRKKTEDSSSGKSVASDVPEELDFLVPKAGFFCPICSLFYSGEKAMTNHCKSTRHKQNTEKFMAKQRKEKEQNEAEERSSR
UniProt Q8NI36: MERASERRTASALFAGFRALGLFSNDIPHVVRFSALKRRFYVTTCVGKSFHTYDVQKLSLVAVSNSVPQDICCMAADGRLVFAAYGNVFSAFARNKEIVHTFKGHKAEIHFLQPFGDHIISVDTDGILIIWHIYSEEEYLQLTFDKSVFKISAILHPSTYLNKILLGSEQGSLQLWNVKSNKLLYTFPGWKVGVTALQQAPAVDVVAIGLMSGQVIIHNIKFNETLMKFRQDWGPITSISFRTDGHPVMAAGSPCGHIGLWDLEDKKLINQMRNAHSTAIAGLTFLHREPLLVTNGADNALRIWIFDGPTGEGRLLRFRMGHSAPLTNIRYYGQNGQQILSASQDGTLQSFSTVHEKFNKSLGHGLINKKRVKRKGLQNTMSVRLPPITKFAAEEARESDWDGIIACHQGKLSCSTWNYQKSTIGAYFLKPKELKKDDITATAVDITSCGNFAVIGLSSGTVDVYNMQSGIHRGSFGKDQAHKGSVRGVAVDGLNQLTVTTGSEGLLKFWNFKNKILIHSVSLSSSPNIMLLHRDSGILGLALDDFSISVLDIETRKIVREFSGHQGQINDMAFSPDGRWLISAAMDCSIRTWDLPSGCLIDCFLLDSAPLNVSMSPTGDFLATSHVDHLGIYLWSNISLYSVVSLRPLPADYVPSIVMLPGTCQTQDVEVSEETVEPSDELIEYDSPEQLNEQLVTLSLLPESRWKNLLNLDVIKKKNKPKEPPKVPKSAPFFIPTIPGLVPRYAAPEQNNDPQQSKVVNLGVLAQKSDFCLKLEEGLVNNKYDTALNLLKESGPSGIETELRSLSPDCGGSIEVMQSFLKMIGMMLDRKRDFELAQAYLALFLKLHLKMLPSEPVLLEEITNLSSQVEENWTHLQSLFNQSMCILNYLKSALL
UniProt Q9NQ55: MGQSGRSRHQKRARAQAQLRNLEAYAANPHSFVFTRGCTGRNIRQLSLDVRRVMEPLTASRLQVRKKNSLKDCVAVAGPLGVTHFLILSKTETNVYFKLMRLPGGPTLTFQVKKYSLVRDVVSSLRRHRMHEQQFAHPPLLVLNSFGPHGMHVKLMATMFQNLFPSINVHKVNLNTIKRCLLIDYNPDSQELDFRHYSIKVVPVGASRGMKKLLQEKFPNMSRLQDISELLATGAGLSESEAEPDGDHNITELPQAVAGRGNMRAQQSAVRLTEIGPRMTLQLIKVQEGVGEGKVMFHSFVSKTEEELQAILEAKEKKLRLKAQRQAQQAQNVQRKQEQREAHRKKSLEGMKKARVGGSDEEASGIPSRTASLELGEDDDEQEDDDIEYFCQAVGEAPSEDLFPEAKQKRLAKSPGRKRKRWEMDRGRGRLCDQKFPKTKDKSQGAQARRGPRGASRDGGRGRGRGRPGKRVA

compound: Nc1nc2c(ncn2[C@@H]2O[C@H](COP(=O)(O)OP(=O)(O)OP(=O)(O)O)[C@@H](O)[C@H]2O)c(=O)[nH]1 [guanosine triphosphate]; test: NP40-soluble protein abundance relative to vehicle (solubility fold change) (ratio); higher = more soluble protein in presence of GTP; conditions: concentration: 0.1mM
Procedure, shortened: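 Across three independent experiments, values are fold changes against the detergent-processed vehicle for each replicate, based on vsn-normalised intensities. The samples were Jurkat crude lysate treated with eight concentrations (0.1 to 10 mM) for 10 min at room temperature and then 3 min at 37 °C. Lysate was solubilised with 0.8% NP40 and benzonase, ultracentrifuged, and the supernatant analysed by TMT-labelled LC-MS/MS.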

Target	NP40-soluble protein abundance
A0A0G2JLB3|A0A0G2JNZ5|P04062 and related entries (UniProt P04062)	1.42 ± 0.38
A0A0B4J1R7|Q96B45 (UniProt Q96B45)	0.918 ± 0.15
A0A0A0MT22|P08575 and related entries (UniProt P08575)	0.925 ± 0.056
A0A0J9YWL0|Q9Y4K1 (UniProt Q9Y4K1)	0.999 ± 0.017
A0A087WZ97|A0A087WZK6|A0A087X2C2|Q5T7M9 (UniProt Q5T7M9)	1.07 ± 0.05
UniProt A4D161 and related entries	1.07 ± 0.17
A0A0A6YYC7|Q96JP5 and related entries (UniProt Q96JP5)	0.94 ± 0.06
A0A0C4DGJ7|Q8WUH1 and related entries (UniProt Q8WUH1)	1 ± 0.032
A0A087WY82|Q9Y624 and related entries (UniProt Q9Y624)	1 ± 0.041
A0A0A6YYC8|I3L1I5 (UniProt I3L1I5)	1.03 ± 0.12
A0JP02 and related entries (UniProt Q9HAU0)	1.01 ± 0.068
A0A140T9B7|P01889 and related entries (UniProt P30493+P30685+Q04826+D0EV57+P01889+P30460+Q29865+Q6DU44+Q8MH48+P10321+P30486+P30508+Q29718+Q29836+P04440+P04439+Q5SRN5+O19617+Q29963+Q9TNN7)	0.979 ± 0.083
A6NCE7 and related entries (UniProt Q9GZQ8+H3BTL1+A6NCE7)	0.996 ± 0.022
A0A0G2JIW1|P0DMV8 and related entries (UniProt P0DMV9+P0DMV8)	0.962 ± 0.063
A0A087X127|E7EWM3 and related entries (UniProt Q8NF64)	1.04 ± 0.16
A0A0C3SFZ9|M0QZI3 and related entries (UniProt O14526)	1.07 ± 0.037
A0A0B4J2A0|Q9UHJ6 (UniProt Q9UHJ6)	1.03 ± 0.098
A2IDA3 and related entries (UniProt P29372)	1.01 ± 0.08

Target	NP40-soluble protein abundance
A0A0A0MR05|H3BSZ4 and related entries (UniProt Q9BVC4)	1.08 ± 0.025
A0A087WXI1|Q6NVY1 (UniProt Q6NVY1)	0.948 ± 0.045
A0A0D9SFB1|A0A0D9SFE4|A0A0U1RQP1|Q05193 and related entries (UniProt Q05193)	0.924 ± 0.21
A0A087X1G1|C9IZN5 and related entries (UniProt Q16718)	0.917 ± 0.041
A0A0C4DFQ0|E9PL24 and related entries (UniProt Q5VU43)	1.05 ± 0.072
A0A087X0V4|A8K0B5 and related entries (UniProt Q8IWT0)	1.16 ± 0.12
A0A096LPH6|Q14966 and related entries (UniProt Q14966)	0.943 ± 0.025
A0A0C4DG40|Q8NF91 and related entries (UniProt Q8NF91)	1.01 ± 0.016
A0A0J9YXZ6|Q4VXZ8 and related entries (UniProt Q9NUI1)	1.03 ± 0.018
A0A0A0MTB8|Q8NI36 (UniProt Q8NI36)	1.1 ± 0.013
A0A087X1F9|E9PI02 and related entries (UniProt Q00613)	0.936 ± 0.043
A0A087WXZ7|K7EIX2 and related entries (UniProt Q6AI08)	0.969 ± 0.05
A0A087WXN4|Q96CB8 (UniProt Q96CB8)	0.965 ± 0.071
A0A0A0MQZ6|O95478 (UniProt O95478)	1.01 ± 0.13
A0A0A6YYI3|A0A0B4J1V8|Q9NQ55 and related entries (UniProt Q9NQ55)	0.987 ± 0.052
A0A096LP25|Q2M2I8 and related entries (UniProt Q2M2I8)	0.972 ± 0.054
A0A0A0MT72|E9PEC4 and related entries (UniProt Q9BSQ5)	0.929 ± 0.021
A0A0J9YYD9	1.03 ± 0.14

same assay, conditions: concentration: 0.5mM

Target	NP40-soluble protein abundance
A0A0G2JLB3|A0A0G2JNZ5|P04062 and related entries (UniProt P04062)	0.843 ± 0.15
A0A0B4J1R7|Q96B45 (UniProt Q96B45)	0.977 ± 0.18
A0A0A0MT22|P08575 and related entries (UniProt P08575)	0.946 ± 0.045
A0A0J9YWL0|Q9Y4K1 (UniProt Q9Y4K1)	1.03 ± 0.034
A0A087WZ97|A0A087WZK6|A0A087X2C2|Q5T7M9 (UniProt Q5T7M9)	1.06 ± 0.017
UniProt A4D161 and related entries	1.05 ± 0.19
A0A0A6YYC7|Q96JP5 and related entries (UniProt Q96JP5)	0.891 ± 0.068
A0A0C4DGJ7|Q8WUH1 and related entries (UniProt Q8WUH1)	1.06 ± 0.043
A0A087WY82|Q9Y624 and related entries (UniProt Q9Y624)	0.953 ± 0.1
A0A0A6YYC8|I3L1I5 (UniProt I3L1I5)	1.28 ± 0.046
A0JP02 and related entries (UniProt Q9HAU0)	0.993 ± 0.14
A0A140T9B7|P01889 and related entries (UniProt P30493+P30685+Q04826+D0EV57+P01889+P30460+Q29865+Q6DU44+Q8MH48+P10321+P30486+P30508+Q29718+Q29836+P04440+P04439+Q5SRN5+O19617+Q29963+Q9TNN7)	0.96 ± 0.085
A6NCE7 and related entries (UniProt Q9GZQ8+H3BTL1+A6NCE7)	1.02 ± 0.062
A0A0G2JIW1|P0DMV8 and related entries (UniProt P0DMV9+P0DMV8)	0.972 ± 0.068
A0A087X127|E7EWM3 and related entries (UniProt Q8NF64)	1.05 ± 0.11
A0A0C3SFZ9|M0QZI3 and related entries (UniProt O14526)	1.05 ± 0.035
A0A0B4J2A0|Q9UHJ6 (UniProt Q9UHJ6)	0.985 ± 0.08
A2IDA3 and related entries (UniProt P29372)	1.04 ± 0.16

Target	NP40-soluble protein abundance
A0A0A0MR05|H3BSZ4 and related entries (UniProt Q9BVC4)	1.154 ± 0.0087
A0A087WXI1|Q6NVY1 (UniProt Q6NVY1)	0.945 ± 0.042
A0A0D9SFB1|A0A0D9SFE4|A0A0U1RQP1|Q05193 and related entries (UniProt Q05193)	0.916 ± 0.22
A0A087X1G1|C9IZN5 and related entries (UniProt Q16718)	0.852 ± 0.0086
A0A0C4DFQ0|E9PL24 and related entries (UniProt Q5VU43)	1.02 ± 0.028
A0A087X0V4|A8K0B5 and related entries (UniProt Q8IWT0)	1.03 ± 0.028
A0A096LPH6|Q14966 and related entries (UniProt Q14966)	0.997 ± 0.062
A0A0C4DG40|Q8NF91 and related entries (UniProt Q8NF91)	0.968 ± 0.041
A0A0J9YXZ6|Q4VXZ8 and related entries (UniProt Q9NUI1)	1.035 ± 0.0051
A0A0A0MTB8|Q8NI36 (UniProt Q8NI36)	1.18 ± 0.047
A0A087X1F9|E9PI02 and related entries (UniProt Q00613)	0.877 ± 0.082
A0A087WXZ7|K7EIX2 and related entries (UniProt Q6AI08)	1.01 ± 0.024
A0A087WXN4|Q96CB8 (UniProt Q96CB8)	0.905 ± 0.033
A0A0A0MQZ6|O95478 (UniProt O95478)	0.93 ± 0.035
A0A0A6YYI3|A0A0B4J1V8|Q9NQ55 and related entries (UniProt Q9NQ55)	0.972 ± 0.063
A0A096LP25|Q2M2I8 and related entries (UniProt Q2M2I8)	1 ± 0.071
A0A0A0MT72|E9PEC4 and related entries (UniProt Q9BSQ5)	0.926 ± 0.028
A0A0J9YYD9	0.941 ± 0.086
